# Binding screen against folded nucleic acids

Oligonucleotides screened, 5′ to 3′:
PreQ1: PreQ1 riboswitch RNA pseudoknot, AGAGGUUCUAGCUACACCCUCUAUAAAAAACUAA. From B. subtilis. About 24,000 compounds screened, about 170 hits.
SAM-II: SAM-II riboswitch RNA pseudoknot, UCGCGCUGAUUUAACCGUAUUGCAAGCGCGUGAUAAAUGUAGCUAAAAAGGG. About 21,000 compounds screened, about 200 hits.
TPP: TPP riboswitch RNA three-way junction, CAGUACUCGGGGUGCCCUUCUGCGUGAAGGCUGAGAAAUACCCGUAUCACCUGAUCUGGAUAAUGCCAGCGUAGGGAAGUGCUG. About 24,000 compounds screened, about 160 hits.

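Compounds were printed on reactive glass slides in duplicate spots, a dye-labelled oligonucleotide was laid over them, and the fluorescence left after washing was read. The data file lists only calls. An earlier report of the laboratory on the PreQ1, TPP and SAM-II riboswitches (doi:10.1038/s41467-019-09493-3) used 1 µM RNA for 2 h and required a mean Z-score above 3 (spot signal-to-noise against the whole library), a score well above that on a control array, and duplicate spots agreeing (coefficient of variation under 100); it then also set aside compounds that hit other targets, which this list keeps. The cut-offs behind this list may differ. A missing hit is not proof of no binding, and a hit is not a measured affinity.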 “hit” means called a hit, “no hit” means screened and not called a hit. This is an unselected part of the compounds tested. A target missing from an entry has no call listed here. A dash means that no call is listed here.

compound | PreQ1 | SAM-II | TPP
OCCCNCC(O)Cn1c2ccccc2c2ccccc21 (stereo not drawn) | no hit | no hit | no hit
CC(C)(C)C(=O)Oc1cc(N)n(S(=O)(=O)c2ccc(Cl)cc2)n1 | no hit | no hit | no hit
CNc1ccc(Br)cc1C(=O)c1ccc(Cl)cc1 | no hit | no hit | no hit
Cc1cc(CNc2ccc3scnc3c2)n[nH]1 | hit | no hit | no hit
CC(O)c1nc2ccccc2n1Cc1ccc(Br)cc1 (stereo not drawn) | no hit | no hit | no hit
O=C1CC(Nc2ccc(F)cc2)C(=O)N1c1ccc(Cl)c(Cl)c1 (stereo not drawn) | no hit | no hit | no hit
CC1=C(CC(=O)O)c2cc(F)ccc2C1=Cc1ccc(S(C)=O)cc1 (stereo not drawn) | no hit | no hit | no hit
Nc1[nH]nc(NCc2ccccc2)c1C(=O)Nc1ccccc1 | no hit | no hit | no hit
CCC(=O)OCCNc1nc(-c2ccccc2)nc2ccccc12 | no hit | no hit | no hit
CC[C@H](C(N)=O)N1CCCC1=O | no hit | no hit | no hit
CC(=O)N1CCN(C(=O)Cn2nc(C)c(C)c2C)CC(O)C1 (stereo not drawn) | no hit | no hit | no hit
Cc1sc2nc(SCC(=O)c3ccccc3)nc(N)c2c1C | no hit | no hit | no hit
CCc1c(C)nc2nncn2c1NCc1ccccc1Cl | no hit | - | no hit
CCCNC1=C(C(=O)Cc2ccc(OCC)c(OCC)c2)C(=O)CC(C)(C)C1 | no hit | no hit | no hit
COc1ccc(-c2noc(-c3nnn(-c4ccc(C)c(C)c4)c3N)n2)cc1 | no hit | - | no hit
CN1C[C@H]2CNC[C@@]2(C(=O)NCc2cc(-c3ccccc3Cl)on2)C1 | no hit | no hit | no hit
Nc1c(C(=O)c2ccc(F)cc2)oc2ccccc12 | no hit | no hit | no hit
Cc1occc1C(=O)NCC(CO)Cc1cccs1 (stereo not drawn) | no hit | no hit | no hit
O=C(NCc1ccccc1)[C@H](Cc1ccccc1)NC(=O)[C@@H]1O[C@@H]1C(=O)NCCc1ccc(O)cc1 | no hit | no hit | no hit
CC(C)S(=O)(=O)N1CCCC2(CCNC2)C1 (stereo not drawn) | no hit | no hit | no hit
Cc1ncc2c(c1CNC(=O)c1ccc3[nH]nnc3c1)CCNC2 | no hit | no hit | no hit
O=C(NCc1ccccc1)c1nn(-c2ccccc2Cl)nc1CO | no hit | - | no hit
CC(=O)NCC(=O)O.CN(C)CCC1c2ccc(Cl)cc2CCc2cccnc21 (stereo not drawn) | no hit | no hit | no hit
O=[N+]([O-])c1cccc(C(O)C23CN4CN(CN(C4)C2)C3)c1 (stereo not drawn) | no hit | no hit | no hit
Cc1cc(NCc2ccccc2F)n2nc(-c3cccnc3)nc2n1 | no hit | - | no hit
Cc1c(-c2ccc(F)cc2)nc(N)c(C#N)c1-c1cnn(C)c1C | no hit | no hit | no hit
Cc1cc(C)c2c(N)c(C(=O)Nc3cccc4cccnc34)sc2n1 | no hit | no hit | no hit
Cc1n[nH]c(SCC(=O)NCC(O)Cc2ccccc2)n1 (stereo not drawn) | no hit | no hit | no hit
Cc1cc2[nH]c(CN3CCC4(CC3)c3ccccc3CC4O)cc(=O)n2n1 (stereo not drawn) | no hit | no hit | no hit
COc1ccc(-c2noc(NCCN3CCc4ccccc4C3)n2)cc1 | no hit | - | no hit
OCc1nc2ccccc2n1Cc1ccccc1Cl | no hit | no hit | no hit
CC(=O)c1c(C)cc(C)c(-c2nccn2Cc2csc(N)n2)c1C | no hit | no hit | no hit
CCOC(=O)c1c(NC(=O)CNCCO)sc(C)c1C | no hit | no hit | no hit
COC(=O)c1cccc(Nc2c(-c3ccc(Cl)cc3)nc3cnccn23)c1 | no hit | - | no hit
CCOC(=O)c1c(C)nc(Nc2nc3ccccc3o2)nc1C | no hit | no hit | no hit
COc1cccc(CNCCO)c1OCc1ccccc1F | no hit | no hit | no hit
Cc1cc(C)n(Cc2ccc(NC(=O)N3C[C@@H]4CC[C@H]3CNC4)cc2)n1 | no hit | no hit | no hit
CCCCSCC(O)CN1CCOCC1 (stereo not drawn) | no hit | no hit | no hit
CC[C@H](CC[C@@H](C)[C@H]1CC[C@H]2[C@@H]3CC=C4C[C@@H](O)CC[C@]4(C)[C@@H]3CC[C@]12C)C(C)C | no hit | no hit | no hit
Cc1ccc(SCCN(C)C(=O)[C@@H](N)CCCCN)cc1 | no hit | no hit | no hit
CCS(=O)(=O)CCNC(=O)c1ccc(C2CCCNC2)cc1 (stereo not drawn) | no hit | no hit | no hit
Cc1nn(C)c(C)c1S(=O)(=O)N1CC[C@H]2NCCC[C@]2(C(=O)O)C1 | no hit | no hit | no hit
O=C(C1CCC(CNc2c(N3CCCCC3)c(=O)c2=O)CC1)N1CCN(c2ccccc2)CC1 (stereo not drawn) | no hit | - | no hit
O=C(N[C@@H](COc1ccc2[nH]c(=O)[nH]c2c1)c1ccccc1)c1cccn(Cc2ccc(F)c(F)c2)c1=O | no hit | no hit | no hit
Clc1ccc(-c2nc3ncccn3c2Nc2ccccc2)cc1 | no hit | no hit | no hit
Cc1sc2ncc(C(=O)NCCO)c(=O)n2c1C | no hit | - | no hit
Cc1ccc(Nc2nc3ccccc3nc2NS(=O)(=O)c2ccccc2)cc1 | no hit | no hit | no hit
O=c1cc(CSCCO)c2ccccc2[nH]1 | no hit | no hit | no hit
N#CC(c1ccc(Cl)cc1)c1c(Cl)cc(-n2ncc(=O)[nH]c2=O)cc1Cl (stereo not drawn) | no hit | no hit | no hit
CCOC(=O)c1c(NC(=O)CC2Nc3cc(C)c(C)cc3NC2=O)sc(C)c1C (stereo not drawn) | no hit | no hit | no hit
Cc1ccc(OC2(C(=O)O)CCN(c3nc(N)nc4[nH]ncc34)CC2)cc1 | no hit | no hit | no hit
CC(C)c1ccc(C2c3c(-c4ccccc4O)n[nH]c3C(=O)N2CCCO)cc1 (stereo not drawn) | no hit | - | no hit
N[C@@H]1c2ccccc2C2(CCN(C(=O)Cn3cnc4ccccc43)CC2)[C@H]1O | no hit | no hit | no hit
OCc1nc2ccccc2n1Cc1cccc(Cl)c1 | no hit | - | no hit
CN1CCN(CCCN2c3ccccc3Sc3ccc(Cl)cc32)CC1.O=C(O)C=CC(=O)O.O=C(O)C=CC(=O)O | no hit | no hit | no hit
COc1ccc(-c2csc(Nc3ccc(C(=O)O)c(O)c3)n2)cc1C | no hit | no hit | no hit
Cc1ccc(Nc2nc(C(=O)O)nc3ccccc23)cc1 | no hit | no hit | no hit
Nc1cc(N2CCC(N3CCCC(C(=O)NCc4ccccn4)C3)CC2)ncn1 (stereo not drawn) | no hit | no hit | no hit
CCOC(=O)c1cc2n(c1N)-c1ccccc1C2=O | no hit | no hit | no hit
COc1ccccc1-c1c(C)nn2c(N)c(-c3ccccc3)cnc12 | no hit | - | no hit
Cc1nc2c(c(NCCOCc3ccc(Cl)cc3)n1)CCNC2 | no hit | no hit | no hit
Nc1nc(CCCNC2CCN(c3ncnc4[nH]cnc34)CC2)cs1 | no hit | no hit | no hit
CC(C)CC1(C)NC(=O)c2ccccc2N1 (stereo not drawn) | no hit | no hit | no hit
COc1cccc(CNc2nc3ccccc3nc2C(=O)OCc2ccccc2)c1 | no hit | no hit | no hit
OCCOc1ccccc1-c1c(-c2ccccc2)ncn1C1CC=CC1 | no hit | no hit | no hit
COC(=O)COc1cc(-c2ccc(C)cc2)nc2ccc(N)cc12 | no hit | no hit | no hit
CC(C)(C)NC1CC(=O)N(c2ccccc2)C1=O (stereo not drawn) | no hit | no hit | no hit
c1ccc(NCCc2nncn2-c2cccnc2)cc1 | no hit | no hit | no hit
Cc1cc(CC(=O)N2CCC3(CC2)[C@H](O)C[C@@H]3OCCN(C)C)on1 | no hit | no hit | no hit
CCc1ccc(C2c3c(-c4ccccc4O)n[nH]c3C(=O)N2CCCO)cc1 (stereo not drawn) | no hit | - | no hit

The last 7 entries again:

* COc1cccc(CNc2nc3ccccc3nc2C(=O)OCc2ccccc2)c1 : PreQ1: no hit; SAM-II: no hit; TPP: no hit
* OCCOc1ccccc1-c1c(-c2ccccc2)ncn1C1CC=CC1 : PreQ1: no hit; SAM-II: no hit; TPP: no hit
* COC(=O)COc1cc(-c2ccc(C)cc2)nc2ccc(N)cc12 : PreQ1: no hit; SAM-II: no hit; TPP: no hit
* CC(C)(C)NC1CC(=O)N(c2ccccc2)C1=O (stereo not drawn) : PreQ1: no hit; SAM-II: no hit; TPP: no hit
* c1ccc(NCCc2nncn2-c2cccnc2)cc1 : PreQ1: no hit; SAM-II: no hit; TPP: no hit
* Cc1cc(CC(=O)N2CCC3(CC2)[C@H](O)C[C@@H]3OCCN(C)C)on1 : PreQ1: no hit; SAM-II: no hit; TPP: no hit
* CCc1ccc(C2c3c(-c4ccccc4O)n[nH]c3C(=O)N2CCCO)cc1 (stereo not drawn) : PreQ1: no hit; TPP: no hit

Source: the ROBIN nucleic acid binder screens (doi:10.1002/anie.202211358).